Source: article PMC9958104, “Arabidopsis histone H3 lysine 9 methyltransferases KYP/SUVH5/6 are involved in leaf development by interacting with AS1-AS2 to repress KNAT1 and KNAT2” (Communications Biology, 2023)

Assays:
Experiment in all cases: split reporter; BiFC (YN/YC halves of YFP) in Agrobacterium GV3101-infiltrated N. benthamiana leaves; confocal microscopy; nucleus marked by NLS-mCherry
[1] = biological target: C-terminus of AS2, BiFC fusion (Arabidopsis thaliana)
[2] = biological target: N-terminus of AS2, BiFC fusion (Arabidopsis thaliana)
[3] = biological target: N-terminus of AS1, BiFC fusion (Arabidopsis thaliana)

B1: KRYPTONITE/SUPPRESSOR OF …ON 3-9 HOMOLOG 4 (KYP/SUVH4), full length, BiFC fusion (enzyme, UniProt Q8GZB6 1-624)
chain: MAGKRKRANAPDQTERRSSVRVQKVRQKALDEKARLVQERVKLLSDRKSEICVDDTELHEKEEENVDGSPKRRSPPKLTAMQKGKQKLSVSLNGKDVNLEPHLKVTKCLRLFNKQYLLCVQAKLSRPDLKGVTEMIKAKAILYPRKIIGDLPGIDVGHRFFSRAEMCAVGFHNHWLNGIDYMSMEYEKEYSNYKLPLAVSIVMSGQYEDDLDNADTVTYTGQGGHNLTGNKRQIKDQLLERGNLALKHCCEYNVPVRVTRGHNCKSSYTKRVYTYDGLYKVEKFWAQKGVSGFTVYKYRLKRLEGQPELTTDQVNFVAGRIPTSTSEIEGLVCEDISGGLEFKGIPATNRVDDSPVSPTSGFTYIKSLIIEPNVIIPKSSTGCNCRGSCTDSKKCACAKLNGGNFPYVDLNDGRLIESRDVVFECGPHCGCGPKCVNRTSQKRLRFNLEVFRSAKKGWAVRSWEYIPAGSPVCEYIGVVRRTADVDTISDNEYIFEIDCQQTMQGLGGRQRRLRDVAVPMNNGVSQSSEDENAPEFCIDAGSTGNFARFINHSCEPNLFVQCVLSSHQDIRLARVVLFAADNISPMQELTYDYGYALDSVHGPDGKVKQLACYCGALNCRKRLY
- binding [1]: no binding
- binding [2]: binds
- binding [3]: binds

These are yes or no findings as the source states them, for the method shown. Binding seen in cells or lysates may run through a third protein. For part of these data: Binding can be weak; no strength is given. Tags and fused reporters may be left off the sequences shown.
